This passage reports binding results from paper PMC4898701.

The chains behind the UniProt entries cited, without tags or fusion partners.
UniProt G3V7W1: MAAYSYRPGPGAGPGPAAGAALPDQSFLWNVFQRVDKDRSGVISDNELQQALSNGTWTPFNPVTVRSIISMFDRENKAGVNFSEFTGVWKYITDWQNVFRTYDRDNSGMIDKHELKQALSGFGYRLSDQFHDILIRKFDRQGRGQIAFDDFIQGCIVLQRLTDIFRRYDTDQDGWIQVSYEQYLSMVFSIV

Assay [1] has as its target T1, sec31A, endogenous in NRK cells (rat (endogenous in NRK)) (UniProt Q9Z2Q1).
T1 sequence: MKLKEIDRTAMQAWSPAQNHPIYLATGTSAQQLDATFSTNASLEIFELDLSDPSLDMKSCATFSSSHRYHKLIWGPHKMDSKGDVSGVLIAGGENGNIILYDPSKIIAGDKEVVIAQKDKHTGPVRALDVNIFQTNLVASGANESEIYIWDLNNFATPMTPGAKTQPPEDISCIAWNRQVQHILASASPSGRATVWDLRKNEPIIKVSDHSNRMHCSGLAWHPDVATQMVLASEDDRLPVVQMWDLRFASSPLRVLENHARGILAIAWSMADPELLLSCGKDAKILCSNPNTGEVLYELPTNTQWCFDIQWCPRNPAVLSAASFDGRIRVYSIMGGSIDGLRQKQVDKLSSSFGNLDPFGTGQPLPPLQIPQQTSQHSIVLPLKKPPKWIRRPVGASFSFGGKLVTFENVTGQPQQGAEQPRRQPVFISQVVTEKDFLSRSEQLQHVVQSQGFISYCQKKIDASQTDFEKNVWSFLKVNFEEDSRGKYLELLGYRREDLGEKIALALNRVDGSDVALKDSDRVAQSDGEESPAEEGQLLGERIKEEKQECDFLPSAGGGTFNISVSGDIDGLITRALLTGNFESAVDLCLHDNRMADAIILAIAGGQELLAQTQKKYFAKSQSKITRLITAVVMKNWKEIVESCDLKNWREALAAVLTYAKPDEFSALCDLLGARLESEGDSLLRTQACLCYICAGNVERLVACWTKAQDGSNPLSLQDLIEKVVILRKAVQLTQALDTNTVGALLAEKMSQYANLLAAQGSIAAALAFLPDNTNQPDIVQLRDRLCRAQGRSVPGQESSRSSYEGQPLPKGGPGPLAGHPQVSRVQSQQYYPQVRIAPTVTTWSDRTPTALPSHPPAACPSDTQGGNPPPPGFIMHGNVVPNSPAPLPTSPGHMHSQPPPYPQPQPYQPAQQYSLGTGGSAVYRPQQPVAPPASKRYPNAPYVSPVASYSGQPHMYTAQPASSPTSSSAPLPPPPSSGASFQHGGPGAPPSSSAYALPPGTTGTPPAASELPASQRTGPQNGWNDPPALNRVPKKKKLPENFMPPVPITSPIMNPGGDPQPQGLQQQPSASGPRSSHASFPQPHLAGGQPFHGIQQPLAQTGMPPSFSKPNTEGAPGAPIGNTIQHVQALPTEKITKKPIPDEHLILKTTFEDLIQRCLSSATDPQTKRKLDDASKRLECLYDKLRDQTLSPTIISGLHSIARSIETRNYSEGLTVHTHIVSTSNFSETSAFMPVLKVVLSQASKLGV
As to the kind of experiment: co-IP; whole cell CHAPS extracts of NRK cells (control or peflin siRNA) precipitated with anti-sec31A antibody conjugated to protein A-Sepharose beads, 2 h at 4°C, 20 mM Tris-HCl pH 7.4, 150 mM KCl, 10 mM CHAPS; immunoblot for sec31A and ALG-2; about 3-fold more ALG-2 co-precipitated in peflin-depleted cells.

Assay [2] deals with T2, FLAG-PRR 800-1113 construct (sec31A proline rich region) (human) (UniProt O94979).
T2 sequence: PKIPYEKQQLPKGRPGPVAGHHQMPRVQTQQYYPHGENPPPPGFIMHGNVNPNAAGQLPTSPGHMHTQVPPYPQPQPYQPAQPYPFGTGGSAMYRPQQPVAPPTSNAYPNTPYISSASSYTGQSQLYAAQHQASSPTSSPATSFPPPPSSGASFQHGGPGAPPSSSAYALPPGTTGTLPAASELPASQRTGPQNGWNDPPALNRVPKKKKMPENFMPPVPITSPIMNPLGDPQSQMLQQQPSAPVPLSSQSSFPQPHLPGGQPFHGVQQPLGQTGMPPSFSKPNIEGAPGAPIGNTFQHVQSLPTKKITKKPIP
Put plainly: co-IP; whole cell CHAPS extracts of NRK cells transfected with FLAG-PRR and control or peflin siRNA, precipitated with anti-FLAG beads; immunoblot for FLAG and endogenous ALG-2; co-precipitation increased in peflin-depleted cells.

These are yes or no findings as the source states them, for the method shown. Binding seen in cells or lysates may run through a third protein. Some entries that bind do so weakly or less than the wild type. For some assays here: Where a sequence is shown, tags or fusion partners need not be part of it.

Take “apoptosis-linked gene 2 (ALG-2), endogenous in NRK cells (from UniProt G3V7W1 1-191)”: the binding entry in assay [1] is given as “binds weakly”; in assay [2] it was “binds”.
